Data from article PMC7948406.

Chains of the proteins cited; added tags and fusions are not shown. Lines headed by an entry give the natural chain unless they say otherwise; changes in a name come on top.
UniProt E9Q2Z1: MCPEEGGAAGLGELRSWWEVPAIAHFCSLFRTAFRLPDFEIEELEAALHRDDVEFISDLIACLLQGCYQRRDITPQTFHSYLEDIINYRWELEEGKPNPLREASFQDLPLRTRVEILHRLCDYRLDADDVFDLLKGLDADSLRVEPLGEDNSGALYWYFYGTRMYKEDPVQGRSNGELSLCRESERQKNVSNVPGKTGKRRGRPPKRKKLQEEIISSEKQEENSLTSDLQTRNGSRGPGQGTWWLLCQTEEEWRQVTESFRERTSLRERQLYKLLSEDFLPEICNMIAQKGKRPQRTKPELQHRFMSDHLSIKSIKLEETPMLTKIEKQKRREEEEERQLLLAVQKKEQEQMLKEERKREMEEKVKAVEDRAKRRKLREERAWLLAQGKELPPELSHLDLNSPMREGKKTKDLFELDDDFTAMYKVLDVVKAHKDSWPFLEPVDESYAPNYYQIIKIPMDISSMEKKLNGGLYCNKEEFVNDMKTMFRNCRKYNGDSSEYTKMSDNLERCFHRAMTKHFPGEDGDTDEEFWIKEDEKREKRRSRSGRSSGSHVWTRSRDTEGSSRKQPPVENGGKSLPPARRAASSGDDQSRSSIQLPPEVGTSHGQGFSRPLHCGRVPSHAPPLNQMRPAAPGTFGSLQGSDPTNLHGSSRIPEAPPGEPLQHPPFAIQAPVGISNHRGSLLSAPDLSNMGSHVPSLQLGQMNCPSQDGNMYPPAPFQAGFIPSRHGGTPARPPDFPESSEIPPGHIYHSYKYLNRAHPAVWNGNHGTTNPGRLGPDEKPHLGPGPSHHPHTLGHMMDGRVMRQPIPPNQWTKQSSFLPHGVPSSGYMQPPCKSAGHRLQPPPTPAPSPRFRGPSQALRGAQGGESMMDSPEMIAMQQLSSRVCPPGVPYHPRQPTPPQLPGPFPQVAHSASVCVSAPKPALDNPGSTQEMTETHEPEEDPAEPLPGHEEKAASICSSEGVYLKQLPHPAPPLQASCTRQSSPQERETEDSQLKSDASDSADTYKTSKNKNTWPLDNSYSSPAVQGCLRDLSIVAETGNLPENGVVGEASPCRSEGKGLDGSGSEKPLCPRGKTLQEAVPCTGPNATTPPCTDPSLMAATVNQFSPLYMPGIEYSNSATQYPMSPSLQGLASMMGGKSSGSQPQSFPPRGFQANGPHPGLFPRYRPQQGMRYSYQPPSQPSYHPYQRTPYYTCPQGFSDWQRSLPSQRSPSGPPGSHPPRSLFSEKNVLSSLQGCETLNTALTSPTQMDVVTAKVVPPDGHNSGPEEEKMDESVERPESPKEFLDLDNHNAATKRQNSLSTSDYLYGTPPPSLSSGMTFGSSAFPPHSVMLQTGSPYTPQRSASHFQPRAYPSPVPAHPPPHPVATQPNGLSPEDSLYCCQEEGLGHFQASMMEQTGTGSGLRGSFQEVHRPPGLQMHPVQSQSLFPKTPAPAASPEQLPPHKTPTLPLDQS
UniProt Q6PGB8: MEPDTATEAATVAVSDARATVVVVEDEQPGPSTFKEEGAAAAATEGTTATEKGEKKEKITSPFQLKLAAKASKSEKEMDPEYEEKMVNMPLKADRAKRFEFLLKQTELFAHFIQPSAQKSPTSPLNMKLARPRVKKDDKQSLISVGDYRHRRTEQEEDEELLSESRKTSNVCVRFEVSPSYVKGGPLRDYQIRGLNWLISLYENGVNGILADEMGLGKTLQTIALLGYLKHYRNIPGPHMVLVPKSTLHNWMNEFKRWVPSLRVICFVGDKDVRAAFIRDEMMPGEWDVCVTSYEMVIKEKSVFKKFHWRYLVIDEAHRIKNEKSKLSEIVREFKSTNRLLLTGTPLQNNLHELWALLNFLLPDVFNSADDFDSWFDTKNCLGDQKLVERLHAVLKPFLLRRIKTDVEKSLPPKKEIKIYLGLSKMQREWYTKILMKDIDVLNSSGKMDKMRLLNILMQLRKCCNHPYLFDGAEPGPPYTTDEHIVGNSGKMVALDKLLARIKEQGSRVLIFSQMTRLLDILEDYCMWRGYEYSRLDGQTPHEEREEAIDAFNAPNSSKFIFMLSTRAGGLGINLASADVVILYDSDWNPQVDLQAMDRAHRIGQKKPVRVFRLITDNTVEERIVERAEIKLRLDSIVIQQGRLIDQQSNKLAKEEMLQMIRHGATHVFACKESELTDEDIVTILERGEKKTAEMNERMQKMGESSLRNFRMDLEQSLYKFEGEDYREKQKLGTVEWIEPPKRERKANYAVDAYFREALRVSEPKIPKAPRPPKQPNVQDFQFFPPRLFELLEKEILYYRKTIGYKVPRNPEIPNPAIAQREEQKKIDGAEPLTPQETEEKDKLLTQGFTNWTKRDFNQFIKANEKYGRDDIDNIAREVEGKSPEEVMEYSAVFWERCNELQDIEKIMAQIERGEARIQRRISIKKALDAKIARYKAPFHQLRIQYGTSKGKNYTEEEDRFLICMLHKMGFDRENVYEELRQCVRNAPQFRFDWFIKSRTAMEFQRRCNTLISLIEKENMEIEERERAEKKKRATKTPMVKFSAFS

Assays:
Cecr2 ΔDDT-3×FLAG = Cecr2 ΔDDT-3×FLAG (UniProt E9Q2Z1); assay: affinity purification with mass spectrometry; whole cell extracts of reprogramming cells at day 3 (50 mM Tris pH 8.0, 150 mM NaCl, 10% glycerol, 0.5% NP40); FLAG antibody or matched IgG overnight at 4 °C, Protein A/G magnetic beads, on-bead digestion, MS
Cecr2-3×FLAG = Cecr2-3×FLAG (UniProt E9Q2Z1); assay: as above

With SMARCA1 (from UniProt Q6PGB8 1-1046) the binding (Cecr2 ΔDDT-3×FLAG) was “no binding” and the binding (Cecr2-3×FLAG) was “binds”.

No constants are given. Whether binding was seen depends on the method and setting. Binding seen in cells or lysates may run through a third protein. A yes stands for co-enrichment or nearness to the bait. Other partners may have been found. For some assays here: A no says only that the protein was not detected with the bait.
